Source: PMC10901736
These are yes or no findings as the source states them, for the method shown. Some binding calls cover weakened binding; strength is not graded here.

The chains behind the UniProt entries cited, without tags or fusion partners.
UniProt A0A0M4U5B4: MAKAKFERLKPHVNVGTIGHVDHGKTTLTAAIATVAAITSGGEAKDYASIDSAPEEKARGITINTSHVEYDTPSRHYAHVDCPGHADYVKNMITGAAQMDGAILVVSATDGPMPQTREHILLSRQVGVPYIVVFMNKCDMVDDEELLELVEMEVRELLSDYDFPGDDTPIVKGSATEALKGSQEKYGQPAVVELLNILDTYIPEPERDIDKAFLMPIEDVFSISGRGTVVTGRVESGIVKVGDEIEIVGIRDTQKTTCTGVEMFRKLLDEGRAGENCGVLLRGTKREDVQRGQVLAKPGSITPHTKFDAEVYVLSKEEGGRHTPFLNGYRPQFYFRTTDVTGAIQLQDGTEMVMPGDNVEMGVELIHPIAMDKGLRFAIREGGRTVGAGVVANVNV

Target: ribosomal protein bL12 (L7/L12 stalk) from Psychrobacter urativorans (P. urativorans (endogenous in P. urativorans))
Test: cryo-EM structure; crude ribosomes isolated from ice-treated (cold shock) P. urativorans cells, buffer A (50 mM Tris-HCl pH 7.5, 20 mM magnesium acetate, 50 mM KCl); focused classification of Balon-bound 70S ribosomes; a 5 Å map of ribosomes from stationary-phase cells shows trace amounts of EF-Tu

- binding: binds
Substance: elongation factor EF-Tu from Psychrobacter urativorans (from UniProt A0A0M4U5B4 1-396)
